Construct, isoform or probe ends are uncertain for at least one entry. A negative result means that nothing was seen under these conditions. At least one verdict rests on a figure or table, not on a statement of the authors.
Biological target: PARP-1 (human) (UniProt P09874)
Assay: EMSA
Conditions: EMSA: 20 mM Na-HEPES pH 7.5, 0.1 mM DTT, 0.05% Triton X-100, 100 ug/mL BSA, 5 mM MgCl2, 2 mM ATP, 100 nM DNA, 37 C 10 min, then 0.2% glutaraldehyde 15 min, recombinant protein, label: 32P

The chains behind the UniProt entries cited, without tags or fusion partners.
UniProt P09874, whole entry: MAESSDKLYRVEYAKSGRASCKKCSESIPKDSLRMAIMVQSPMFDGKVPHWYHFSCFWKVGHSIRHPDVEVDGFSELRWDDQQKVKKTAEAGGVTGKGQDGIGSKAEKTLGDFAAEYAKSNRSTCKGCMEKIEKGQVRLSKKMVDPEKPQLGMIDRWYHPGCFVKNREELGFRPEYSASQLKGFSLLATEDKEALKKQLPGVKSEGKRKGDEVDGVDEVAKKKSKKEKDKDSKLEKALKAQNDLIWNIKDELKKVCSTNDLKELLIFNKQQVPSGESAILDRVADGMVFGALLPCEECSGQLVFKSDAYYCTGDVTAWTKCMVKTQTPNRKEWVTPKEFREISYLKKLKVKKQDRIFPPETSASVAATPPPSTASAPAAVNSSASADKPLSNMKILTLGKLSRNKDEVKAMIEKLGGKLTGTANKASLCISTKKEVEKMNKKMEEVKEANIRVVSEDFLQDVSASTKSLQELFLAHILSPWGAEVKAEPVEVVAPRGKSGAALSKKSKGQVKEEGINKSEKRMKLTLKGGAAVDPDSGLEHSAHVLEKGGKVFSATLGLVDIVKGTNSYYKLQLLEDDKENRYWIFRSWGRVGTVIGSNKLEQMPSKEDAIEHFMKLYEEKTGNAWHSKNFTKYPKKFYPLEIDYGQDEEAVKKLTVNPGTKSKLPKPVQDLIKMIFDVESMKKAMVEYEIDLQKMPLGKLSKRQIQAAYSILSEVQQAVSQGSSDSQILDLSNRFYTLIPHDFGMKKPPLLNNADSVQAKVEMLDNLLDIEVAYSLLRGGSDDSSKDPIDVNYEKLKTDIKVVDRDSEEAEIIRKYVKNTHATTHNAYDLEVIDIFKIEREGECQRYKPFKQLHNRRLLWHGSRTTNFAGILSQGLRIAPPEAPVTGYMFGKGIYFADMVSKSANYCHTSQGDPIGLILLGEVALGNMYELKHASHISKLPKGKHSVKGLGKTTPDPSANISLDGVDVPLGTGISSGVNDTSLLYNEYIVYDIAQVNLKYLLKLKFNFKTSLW

GGGCGAATTGGGCCCGACGTCGCATGCTCCTCTAGACTCGAGGAATTCGGTACCCCGGGTTCGAAATCGATAAGCTTACAGTCTCCATTTAAAGGACAAG (double strand) [JYM696/JYM698]
binding result (250 uM NAD+, automodification releases PARP-1 from DNA): no binding | binding result (no NAD, 5 mM Mg2+, 2 mM ATP, glutaraldehyde-fixed): binds

Reference: PMC6609622
